{"source": "PubChem BioAssay AID540276", "about": "(National Center for Advancing Translational Sciences (NCATS), 2011)", "note": "In all, about 300,000 compounds went through this assay and about 5,400 (1.8%) were called active. Inconclusive means that the source gave no clear call. Such entries were picked first, then a sample of the others. Calls come from the whole dose curve; tested in HEK293 cells. Potencies of inconclusive entries are doubtful fits and often do not repeat. % is set by controls: 0 for no effect and ±100 for the full control effect; potency is the fitted concentration of half-maximal effect."}
{"assay": "qHTS for inhibitors of binding or entry into cells for Marburg Virus", "settings": "Marburg virus pseudotyped entry inhibition, cell reporter; activity change, negative = inhibition: at 37.8 µM (top of the series) unless noted"}
{"smiles": "CC1(C)CC(=O)c2cc(C(=O)Nc3ccc(Cl)cc3)c(=O)[nH]c2C1", "activity change, negative = inhibition": "inconclusive: 26.7% [activator] [at 46.1 µM]"}
{"smiles": "Cc1nn(CC(=O)Nc2ccc(N(C)C)cc2)c(C)c1[N+](=O)[O-]", "Potency": "inconclusive: 3.16 µM [activator, single point]"}
{"smiles": "Cc1ccc(N=Cc2cc(Br)cc(Cl)c2O)cc1", "Potency": "inconclusive: 4.47 µM [inhibitor, single point]"}
{"smiles": "O=c1[nH]ncc(N2CCCC2)c1Cl", "Potency": "inconclusive: 1.26 µM [inhibitor, partial curve, poor fit]"}
{"smiles": "COC(=O)CN1C(=O)C2(OCCCO2)c2ccccc21", "Potency": "inconclusive: 9.2 µM [activator, partial curve, poor fit]"}
{"smiles": "CC1CCCN(C2=C(Cl)C(=O)N(c3cccc(Cl)c3)C2=O)C1", "note": "(centres undefined)", "Potency": "inconclusive: 4.47 µM [inhibitor, single point]"}
{"smiles": "CCCCNC(NCCCC)=C(S(=O)(=O)CC)S(=O)(=O)CC", "Potency": "inactive"}
{"smiles": "COc1ccc(CNC(=O)Nc2ccc(C)cc2)cc1", "Potency": "inactive"}
{"smiles": "Cc1cccc(NC(=O)c2cccc(NC(=O)Cc3cccs3)c2)c1", "Potency": "inconclusive: 3.98 µM [activator, full curve, poor fit]"}
{"smiles": "O=[N+]([O-])c1cc(Cl)cc(/C=N/Nc2nc3ccccc3s2)c1O", "Potency": "inconclusive: 3.16 µM [activator, partial curve, poor fit]"}
{"smiles": "O=C(CCNS(=O)(=O)c1cccc2nonc12)NC1CCCCCC1", "Potency": "inconclusive: 20 µM [activator, single point]"}
{"smiles": "COc1cccc(CNC(=O)CSc2cc(=O)n(C)c3ccccc23)c1", "Potency": "inconclusive: 6.31 µM [inhibitor, single point]"}
{"smiles": "Cc1nc(S(=O)(=O)N2CCOCC2)c(C#N)c(C)c1Cl", "Potency": "inactive"}
{"smiles": "CCN(CC)CCOC(=O)c1ccc(NC(=O)C(C)NC(=O)C23CC4CC(CC(C4)C2)C3)cc1", "note": "(centres undefined)", "Potency": "inactive"}
{"smiles": "O=C(/C=C/c1ccc(Cl)cc1)N1CCN(Cc2ccccc2)CC1", "Potency": "inconclusive: 35.5 µM [inhibitor, single point]"}
{"smiles": "Cc1ccc(NC(=O)CSc2nc3c(c(=O)[nH]2)CN(Cc2ccccc2)CC3)cc1Cl", "Potency": "inconclusive: 35.5 µM [inhibitor, single point]"}
{"smiles": "COc1ccc([N+](=O)[O-])cc1NC(=O)CSc1nc(C)c(C)c(C)n1", "Potency": "inactive"}
{"smiles": "O=C(Nc1ccc(Oc2ccc(Cl)cc2)cc1)c1ncn[nH]1", "Potency": "inconclusive: 39.8 µM [inhibitor, partial curve, poor fit]"}
{"smiles": "Cc1ccc(-n2cc(C(=O)c3ccc4ccccc4c3O)cn2)cc1", "Potency": "inactive"}
{"smiles": "NCCc1ccc(S(=O)(=O)F)cc1", "Potency": "inconclusive: 6.31 µM [inhibitor, single point]"}
{"smiles": "CCN(CC)c1ccc(NC(=O)COC(=O)/C=C/c2nc3ccccc3s2)cc1", "activity change, negative = inhibition": "inconclusive: 12.7% [activator] [at 46.1 µM]"}
{"smiles": "NC(=O)C1CCN(C(=O)C2c3ccccc3C(=O)N3CCc4ccccc4C23)CC1", "note": "(centres undefined)", "Potency": "inactive"}
{"smiles": "O=C(O)C1C2C=CC(C2)C1C(=O)NCc1ccc(Cl)c(Cl)c1", "note": "(centres undefined)", "Potency": "inactive"}
{"smiles": "COc1ccc(C2(CNC(=O)C(=O)Nc3ccc(C)c(Cl)c3)CCCC2)cc1OC", "Potency": "inactive"}
{"smiles": "C/C(=C\\C(=O)OCC(=O)NCc1ccccc1)C(=O)OCC(=O)NCc1ccccc1", "Potency": "inconclusive: 2.51 µM [activator, full curve, poor fit]"}
{"smiles": "CCC(=O)Nc1ccc(C2C(=O)c3ccccc3C2=O)cc1", "Potency": "active: 10 µM"}
{"smiles": "COC(=O)C1=C(C)NC(C)=C(C(=O)OCC2CCCO2)C1c1cccc(Br)c1", "note": "(centres undefined)", "Potency": "inactive"}
{"smiles": "Clc1ccccc1-c1nc(-c2ccncc2)no1", "Potency": "inconclusive: 0.631 µM [activator, full curve, poor fit]"}
{"smiles": "C/C(=N\\NC(=O)OC(C)(C)C)c1cccc([N+](=O)[O-])c1", "Potency": "inconclusive: 1.78 µM [activator, full curve]"}
{"smiles": "COc1cccc(-c2cc(C(=O)Nc3c(C)n(C)n(-c4ccccc4)c3=O)no2)c1", "Potency": "inconclusive: 14.1 µM [activator, single point]"}
{"smiles": "CCCCN(C)C(=O)C1CCN(c2ccc(S(=O)(=O)N3CCOCC3)cc2[N+](=O)[O-])CC1", "Potency": "inactive"}
{"smiles": "CCOc1ccccc1N1CC(C(=O)NCCC2=CCCCC2)CC1=O", "note": "(centres undefined)", "Potency": "inconclusive: 12.6 µM [activator, single point]"}
{"smiles": "COc1ccc(OC)c(CN2CCN(C(=O)c3cccs3)CC2)c1", "Potency": "inconclusive: 5.8 µM [inhibitor, single point]"}
{"smiles": "Fc1ccc(/C=N/Nc2nnnn2-c2ccccc2)cc1", "Potency": "inconclusive: 35.5 µM [activator, single point]"}
{"smiles": "COCCn1c(=S)[nH]c2cc(C(=O)N3CC(C)CC(C)C3)ccc2c1=O", "note": "(centres undefined)", "Potency": "inconclusive: 35.5 µM [inhibitor, single point]"}
{"smiles": "COc1ccc(OCC(=O)Nc2ccc(S(=O)(=O)N(C)c3ccccc3)cc2)cc1", "Potency": "inconclusive: 12.6 µM [activator, single point]"}
{"smiles": "COc1cccc(OC)c1OCCCOc1cccc2cccnc12", "Potency": "inconclusive: 25.1 µM [activator, single point]"}
{"smiles": "CCNC(=O)c1cccc(NC(=O)c2cc(C3CC3)nc3c2cnn3C(C)C)c1", "Potency": "inconclusive: 7.08 µM [inhibitor, partial curve, poor fit]"}
{"smiles": "O=C1CN(C(=O)COC(=O)c2ccccc2O)c2ccccc2N1", "Potency": "inactive"}
{"smiles": "O=C(CSc1ccc2nnc(-c3ccc(F)cc3)n2n1)N1CCCc2ccccc21", "Potency": "inconclusive: 35.5 µM [inhibitor, single point]"}
{"smiles": "CCc1ccc(N(C(=O)c2csnn2)C(C(=O)NC(C)(C)C)c2cccnc2)cc1", "note": "(centres undefined)", "Potency": "inconclusive: 14.1 µM [inhibitor, single point]"}
{"smiles": "CCc1nnc(NC(=O)C2Cc3ccccc3CN2S(=O)(=O)c2ccc(C)cc2)s1", "note": "(centres undefined)", "Potency": "inactive"}
{"smiles": "COc1ccc(N(CC(=O)NCCOc2ccccc2)S(=O)(=O)c2ccc(C)cc2)cc1", "Potency": "inconclusive: 20 µM [inhibitor, single point]"}
{"smiles": "O=C(O)CCCC(=O)NNc1ncnc2ccccc12", "Potency": "inconclusive: 3.55 µM [activator, single point]"}
